# Assay results from patent publication EP0584290B1, “ENDOTHELIN ANTAGONISTS” (WARNER-LAMBERT COMPANY, priority 1991, dated 1992).
# At least one peptide structure holds a part that was inferred or is arguable (an end, a ring closure or a residue). Square brackets hold non-standard residues; d marks the D form. Peptide text beside a SMILES is read from it. dDip = N[C@@H](C(=O)O)C(c1ccccc1)c1ccccc1; Orn = NCCC[C@H](N)C(=O)O
# Molecular target: endothelin receptor, rat heart ventricle
# Experiment: [125I]-ET-1 binding assay in rat heart ventricle
# Conditions: [125I]-ET-1, rat heart ventricle (10 µg), 37°C, 2 hours
# Protocol: The compounds of Formula I are valuable antagonists of endothelin. […] Thus, the compounds of Formula I were tested for their ability to inhibit [^125I]-ET-1([^125I]-Endothelin-1) binding in a receptor assay. The binding of the compounds of Formula I is determined by incubation (37°C, 2 hours) of a compound of Formula I with [^125I]-ET-1 and the tissue (rat heart ventricle (10 µg)) in 50 mM Tris(hydroxymethyl)aminomethane hydrochloride (Tris-HCl) (pH 7.4), 5 mM ethylenediamine tetraacetic acid (EDTA), 2 mM ethylene glycol bis(β-aminoethyl ether)N,N,N',N'-tetraacetic acid (EGTA), 100 µM phenylmethylsulfonyl fluoride (PMSF), and 100 µM bacitracin containing protease inhibitors (total volume of 0.5 mL). IC50 values are calculated by weighing nonlinear regression curve-fitting to the mass-action (Langmuir) equation. The functional activity of compounds of Formula I is determined in Rat-1 cells by measuring intracellular levels of second messengers. Thus, cells were prelabeled with [^3H]-inositol and endothelin-stimulated accumulation of total [^3H]-inositol phosphates in the presence of Li^+ is monitored using anion exchange chromatography as described by Muldoon, L. L., et al, Journal of Biological Chemistry, Volume 264, pages 8529-8536 (1989) and Dudley, D. T., et al, Molecular Pharmacology, Volume 38, pages 370-377 (1990). […]
row,Structure (SMILES),IC50 [nM]
1,"CC[C@H](C)[C@H](NC(=O)[C@H](CC(=O)O)NC(=O)[C@H](CCCN)NC(=O)[C@@H](Cc1ccccc1)NC(C)=O)C(=O)N[C@H](C(=O)N[C@@H](Cc1c[nH]c2ccccc12)C(=O)O)[C@@H](C)CC [Example 8, Ac-D-Phe-Orn-Asp-Ile-Ile-Trp] (Ac-[dF][Orn]DIIW-OH)",680
2,"CC[C@H](C)[C@H](NC(=O)[C@H](CC(=O)O)NC(=O)[C@H](CCC(=O)O)NC(=O)[C@H](NC(C)=O)C(c1ccccc1)c1ccccc1)C(=O)N[C@H](C(=O)N[C@@H](Cc1c[nH]c2ccccc12)C(=O)O)[C@@H](C)CC [Example 20, Ac-D-Dip-Glu-Asp-Ile-Ile-Trp] (Ac-[dDip]EDIIW-OH)",85
